{
  "source": "patent US10849847B2",
  "about": "“Compositions and methods for treating rosacea and acne” (Foamix Pharmaceuticals Ltd., priority 2016, dated 2020)",
  "conditions": "minimal quantities of water (100 μL)",
  "experimental": "The ratio between MCH and the tested excipient is detailed below. Visual inspection was the major criterion for indication of compatibility. The color of intact MCH suspension is pale yellow; and any change of color (e.g., to dark orange, red, green, brown and black) indicates oxidation or degradation.\nOther than hydrogenated castor oil, beeswax, paraffin and hard fat, the aforesaid items listed are oily emollients.\nAdditives were tested for compatibility with MCH. […] In parallel, antioxidants were added to the MCH suspensions comprising water.",
  "note": "Structures can show the parent of a compound that is named as a salt. At least one structure is not confirmed: it was looked up by name or label, or the drawing left a doubt.",
  "data": [
    {"compound": "CN(C)c1ccc(O)c2c1C[C@H]1C[C@H]3[C@H](N(C)C)C(O)=C(C(N)=O)C(=O)[C@@]3(O)C(O)=C1C2=O", "note": "[MCH, minocycline hydrochloride, reference compound]", "values": [
      {"measurement": "Effect of addition of water on MCH suspended in compatible excipients", "value": "prompt degradation"}
    ]}
  ]
}
